# Some of the results follow.
# Test system: T1, CTL2-GFP (C. trachomatis L2/434/Bu, GFP-expressing)
# T1 construct: L2/434/Bu, GFP-expressing
# Set-up: species or system HeLa; Intracellular C. trachomatis growth in HeLa cells, bulk GFP fluorescence relative to DMSO
# Conditions: bulk GFP, single well; 28.5 h, 10 µM; inhibitor
row,SMILES,% of control remaining [%]
1,Cc1cccc(NS(=O)(=O)c2ccc(OCC(=O)Nc3ccc4c(c3)OCCO4)cc2)c1 [CBK268068],85.5567
2,Cc1cnn(CC(=O)N2CC[C@H]3NC(=O)c4ccccc4OCCCCC[C@H]3C2)c1 [CBK292010],93.0243
3,O=C(O)CCSCc1ccc([N+](=O)[O-])cc1 [CBK262359],109.037
4,Cc1cccc(C)c1OCc1nnc(SCc2ccc([N+](=O)[O-])cc2)n1C [CBK269737],101.134
5,CCCCN(CCCC)S(=O)(=O)c1nc2nc(C)cc(C)n2n1 [CBK022076],143.871
6,O=C(NCCN1CCN(C(=O)Nc2ccccc2)CC1)C1CCCC1 [CBK305915],125.552
7,O=C(CC1(O)C(=O)N(Cc2ccc3c(c2)OCO3)c2ccccc21)c1ccccn1 (stereo not drawn) [CBK269725],131.953
8,Cc1nc2sc3c(c2c2nc(-c4ccncc4)nn12)CCCC3 [CBK288541],133.361
9,Fc1ccc(OCCCN2CCC3(CC2)OCCc2c3[nH]c3ccccc23)cc1 [CBK107736],127.598
10,NC(=S)Nn1c(CCC(=O)O)ccc1-c1cccs1 [CBK265952],123.93
11,O=C(CNC(=O)c1cccc(Cl)c1)N/N=C/C=C/c1ccccc1 [CBK261947],100.657
12,c1csc(-c2nc3[nH]c4ccccc4n3n2)c1 [CBK264118],106.721
13,Cn1nc(-c2ccc(S(=O)(=O)NCCN3CCNC3=O)s2)cc1C(F)(F)F [CBK062610],116.544
14,O=C(Nc1ccccc1C(=O)c1ccccc1)c1ccccn1 [CBK288150],114.049
15,O=C(NC(c1ccc2c(c1)CCO2)C1CC(O)C1)c1cccc(=O)[nH]1 (stereo not drawn) [CBK307463],97.8097
16,CC1CCCN(c2nc3cc(C(=O)O)sc3[nH]2)C1 (stereo not drawn) [CBK287159],118.065
17,Cn1nccc1C(=O)N1CCCC(c2cc3ncccc3[nH]2)C1 (stereo not drawn) [CBK283413],132.816
18,Cc1cc(-c2nc3ncccc3o2)ccc1NC(=O)c1ccc2c(c1)OCCO2 [CBK270104],116.569
19,O=[N+]([O-])c1ccc(NCCCNS(=O)(=O)c2ccc(Cl)cc2)c(Cl)c1 [CBK262543],104.667
20,CC(CN1CCCCC1)OC(=O)C(c1ccccc1)c1ccccc1 (stereo not drawn) [CBK265237C],80.4856
21,CN(C)c1cccc(Nc2cc(-c3ccc(CCC(=O)O)cc3)ncn2)c1 [CBK091010],167.283
22,Cc1c(C(N)=O)sc2ncn(CC(=O)NCCc3ccccc3)c(=O)c12 [CBK268514],152.789
23,CC1CCc2nc(NC(=O)c3ccccc3)sc2C1 (stereo not drawn) [CBK287298],113.459
24,COc1ccc(CCNC(=S)N2CCN(S(C)(=O)=O)CC2)cc1OC [CBK266917],108.641
25,CCC(=O)N1CCC(c2cc(-c3cccc(F)c3)n(C)n2)CC1 [CBK282096],106.924
26,CSc1nc(NN2C(=O)c3ccccc3C2=O)c2c3c(sc2n1)COC(C)(C)C3 [CBK268758],115.797

row,SMILES,% of control remaining [%]
1,Cc1nnc(CN(C)C2CCN(CCc3cccs3)C2)n1C (stereo not drawn) [CBK305126],149.016
2,O=C(NCc1cccnc1)N1CCCCC1CO (stereo not drawn) [CBK156169],88.8486
3,Cc1nnc2nc(-c3ccc(Cl)cc3Cl)[nH]n12 [CBK027731],90.8581
4,O=C(c1c[nH]c(-c2ncn[nH]2)c1)c1ccc(Cl)cc1Cl [CBK008334],112.37
5,Cc1ccccc1-n1ccn(C(=O)CCCOc2ccc(Cl)cc2)c1=O [CBK106573],114.441
6,Cc1ccnc(NCn2nnc3ccccc32)c1 [CBK261116],108.518
7,COc1ccc(Cn2nc(NC(=O)c3cnc4ccccc4n3)c3ccccc32)cc1 [CBK048343],113.398
8,CC1(C(=O)O)COC(c2ccc([N+](=O)[O-])cc2)OC1 (stereo not drawn) [CBK286737],118.681
9,CC(Nc1n[nH]c(=O)[nH]c1=O)C(=O)N/N=C/c1ccccc1O (stereo not drawn) [CBK263526],100
10,O=C(c1ccc(F)cc1)C1CCN(Cc2cccnc2)CC1 [CBK149118],108.045
11,COc1ccc(Cl)c(Cn2c(NCc3ccccn3)nc3c2c(=O)n(C)c(=O)n3C)c1 [CBK268965],119.935
12,Cc1ncccc1C(=O)N1CCC2(CCc3ccccc3C(=O)N2)C1 (stereo not drawn) [CBK283338],93.6021
13,CN(C)C(=O)c1ccc(-c2cnc3[nH]c(=O)n(CCCN4CCOCC4)c3n2)cc1 [CBK064828],87.5718
14,COc1cc(-c2cncc(NCc3ccco3)n2)cc(OC)c1OC [CBK065259],117.28
15,CCCN1CCC(NCC(C)(C)CN(C)C)CC1 [CBK261934],110.509
16,O=C(NC1CCCCC1)NC1CCN(Cc2nnnn2Cc2ccco2)CC1 [CBK085007],98.8602
17,Cc1cnccc1N1CCN(C(=O)CCCOc2ccccc2)CC1 [CBK304677],129.316
18,Cc1c(C(=O)O)sc2nc(SCC(=O)Nc3ccc(OCc4ccccc4)cc3)[nH]c(=O)c12 [CBK296992],169.206
19,C=CCN1C(=O)CC2(C1=O)C(=O)N(CC)c1ccc(F)cc12 (stereo not drawn) [CBK075316],95.2301
20,Cc1cc2n(n1)[C@@H](C(F)F)C[C@@H](C1CCCN(C(=O)C3CC3)C1)N2 (stereo partly drawn) [CBK284723],92.2049
21,CCCC(=O)N1CCCC1c1cc2n(n1)[C@@H](C(F)(F)F)C[C@@H](C)N2 (stereo partly drawn) [CBK283003],125.646
22,COc1ccc(OC)c([C@@H]2CN(Cc3ccccc3)C[C@H]2NC(=O)c2ccco2)c1 [CBK286479],125.058
23,NC(=O)C1CCN(c2ccc(-c3noc([C@@H]4CCCN4Cc4cccnc4)n3)cn2)CC1 [CBK288882],129.813
24,O=C1CC(C(=O)Nc2ccc(Cl)cc2)c2c(nc(SCc3ccccc3F)[nH]c2=O)N1 (stereo not drawn) [CBK294437],145.53
25,Cc1cc(C(=O)N2Cc3ccccc3C2)n[nH]1 [CBK200328],165.337
26,Cc1nnc([C@H]2CCN(Cc3ccc(F)cc3)C2)o1 [CBK289391],131.128

row,SMILES,% of control remaining [%]
1,O=C(COc1ccc(Cl)cc1)NNC(=O)c1cccnc1 [CBK261044],111.649
2,COC(=O)[C@@H]1Cc2ncn(Cc3ccc(Cl)cc3)c2CN1C(=O)c1ccc(C#N)cc1 [CBK288984],112.836
3,Nc1nc(N)c2nc(C3OCCO3)cnc2n1 [CBK027115],86.2075
4,Cn1nc2c(cc1=O)CN(C(=O)c1cnc(C(C)(C)C)nc1)CC2 [CBK304293],121.915
5,O=C(Nc1ccc2c(c1)C(=O)NC2=O)c1ccccc1 [CBK270384],136.655
6,O=C(Cn1cnnn1)NCc1ccccc1 [CBK200255],124.309
7,CC(=O)c1ccc2c(c1)[C@@H]1C=CC[C@@H]1[C@H](C(=O)O)N2 [CBK287093],132.136
8,CCCn1cnc2cc(NC(=O)Cn3cccc(C(=O)Nc4ccc(F)cc4)c3=O)ccc21 [CBK286060],122.098
9,O=C(O)c1cc(NC/C=C/c2ccccc2)ccc1N1CCOCC1 [CBK269806],79.2912
10,CS(=O)(=O)c1ncc(Cl)c(C(=O)N(Cc2ccccc2)Cc2ccco2)n1 [CBK269603],38.2117
11,COc1ccc(OCC2CCN(C(=O)[C@@H]3C[C@@H]4C=C[C@H]3C4)CC2)cc1 [CBK282218],114.29
12,O=C(NCCN1CCOCC1)c1cccc(S(=O)(=O)N2CCCC2)c1 [CBK267316],135.79
13,CN(C)c1nc(N(C)C)n(Cc2ccc(F)cc2)n1 [CBK018839],117.082
14,CC(=O)NCCc1ccc(S(=O)(=O)N2CCN(Cc3ccccc3)CC2)cc1 [CBK268458],135.678
15,CC(C)(CO)CNc1nc(-c2ccsc2)cnc1N [CBK063499],109.234
16,CC(C)(C)NC(=O)Cn1cncc1-c1cnn(C2CCCCC2)c1 [CBK281701],131.84
17,O=C(CSc1nnc(CCc2ccccc2)n1-c1ccc(Cl)cc1)c1ccccc1 [CBK266277],128.768
18,Cc1ccc(C(=O)Oc2cccc(NC(=O)c3ccco3)c2)cc1S(=O)(=O)N1CCOCC1 [CBK263211],112.58
19,CCc1ccc(CNC(=O)Cn2nnnc2-c2ccc(CN3CCC(C)CC3)cn2)cc1 [CBK153930C],107.639
20,COc1ccc(C(=O)N2CCC3(CCN(C(=O)c4cccc(C#N)c4)C3)C2)cc1OC (stereo not drawn) [CBK131773],107.729
21,COC(=O)c1ccc(NC(=O)COn2nnc3ccc([N+](=O)[O-])cc32)cc1 [CBK267106],169.263
22,COc1ccc(N(C(C)C(=O)N/N=C(\C)c2ccccc2O)S(C)(=O)=O)cc1 (stereo not drawn) [CBK262402],99.1092
23,COc1ccc(CN2C(=O)COC[C@@H]2[C@H](O)c2ccc(NC(=O)c3ccc(OC)cc3)cc2)cc1 [CBK289675],146.765
24,CCCC/C=C/c1cncc(Nc2ccccc2)n1 [CBK037942],110.89
25,Cc1ccc(S(=O)(=O)Nc2ccc3c(ccn3CCOC3CCN(C(=O)OC(C)(C)C)CC3)c2)cc1Cl [CBK172991],108.169
26,CCC(SC1=NCCS1)C(=O)Nc1ccc(S(N)(=O)=O)cc1 (stereo not drawn) [CBK263027],100

# Some of these compounds in order of heavy-atom count, low to high.
row,SMILES,% of control remaining [%]
15,CC(C)(CO)CNc1nc(-c2ccsc2)cnc1N [CBK063499],109.234
26,CCC(SC1=NCCS1)C(=O)Nc1ccc(S(N)(=O)=O)cc1 (stereo not drawn) [CBK263027],100
4,Cn1nc2c(cc1=O)CN(C(=O)c1cnc(C(C)(C)C)nc1)CC2 [CBK304293],121.915
9,O=C(O)c1cc(NC/C=C/c2ccccc2)ccc1N1CCOCC1 [CBK269806],79.2912

# From paper PMC12040169 (PLOS Biology, 2025)
